PubChem BioAssay AID602196, INSERM | 2012

Test: 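Modifiers of cisplatin sensitivity in A549 cells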
Cell system: human A549 lung cancer cells
Reagents: siRNA pair against human genes
Duration: 48 h transfection before cisplatin; time from cisplatin to read-out not stated
Treatment: cisplatin at a dose killing half of control-siRNA cells; exact dose and duration not given
Read-out: 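Cisplatin cell death as a shift from the 50% death seen with control siRNA; siRNAs toxic or growth-blocking alone scored 0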
Reading the numbers: two-siRNA summed score (-2 to +2): higher = both siRNAs protect from cisplatin killing; -2 means both sensitise
Rule for the call: 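Each siRNA scores 0 if harmful alone by LDH or WST-1, otherwise +1 if it reduces and -1 if it increases cisplatin killing; a gene is active when both siRNAs agree (sum +2 or -2)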
Calls: active = both siRNAs shift cisplatin killing the same way; inactive = no consistent shift, or siRNA harmful alone
The deposit covers about 23,000 reagents; below is a part drawn at random. 455 of them (2%) were called active. 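Active includes both protection and sensitisation; some change values fall well beyond the stated -50 to +50 range.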 Not all columns of the deposit are shown. No sequences are given here. The record does not give: the amount of reagent.

| gene | two-siRNA summed score (-2 to +2) | call |
| --- | --- | --- |
| TCEA1 | 0 | inactive |
| LOC442122 (retired record) | 0 | inactive |
| S100B | -1 | inactive |
| PKD2L2 | -1 | inactive |
| BICRA | 1 | inactive |
| L3MBTL3 | 1 | inactive |
| LOC400618 | 0 | inactive |
| NME8 | 0 | inactive |
| WFIKKN1 | 0 | inactive |
| CPM | 1 | inactive |
| LOC441561 | 0 | inactive |
| ANKRD7 | 0 | inactive |
| ZSCAN22 | 0 | inactive |
| EDEM3 | 0 | inactive |
| LRP1B | -1 | inactive |
| MAGI2 | -1 | inactive |
| LOC339693 | 0 | inactive |
| RNF112 | 0 | inactive |
| LOC401544 | 0 | inactive |
| FSCB | 1 | inactive |
| SYT4 | 1 | inactive |
| ELOVL7 | 0 | inactive |
| KMT2D | 0 | inactive |
| LINC01060 | 0 | inactive |
| AKAP17A | 0 | inactive |
| GJC2 | 1 | inactive |
| FLJ13305 | 0 | inactive |
| LOC442665 | 0 | inactive |
| MLEC | 1 | inactive |
| KIAA1671 | 0 | inactive |
| CXCL6 | 0 | inactive |
| LRRN2 | -1 | inactive |
| MAPK12 | 0 | inactive |
| TAF4 | 0 | inactive |
| LINC00652 | 1 | inactive |
| PRPF39 | 0 | inactive |
| TRIM17 | 0 | inactive |
| MCAM | 0 | inactive |
| GGT6 | 0 | inactive |
| SENP2 | -1 | inactive |
| LOC442008 | 0 | inactive |
| LOC139886 | -1 | inactive |
| DKFZp434E1119 (retired record) | 0 | inactive |
| TNFRSF19 | 0 | inactive |
| SYT11 | 0 | inactive |
| PRC1 | 0 | inactive |
| PSMA2 | 0 | inactive |
| SMYD4 | 0 | inactive |
| LOC441441 | 1 | inactive |
| EIF2B4 | -1 | inactive |
| CDK6 | 1 | inactive |
| ARHGEF11 | 0 | inactive |
| LYPLA1 | 1 | inactive |
| ENO1 | -1 | inactive |
| EFNB3 | 0 | inactive |
| SCRN1 | 1 | inactive |
| RSRP1 | 1 | inactive |
| DRC7 | 0 | inactive |
| LOC390856 | 1 | inactive |
| PARN | 0 | inactive |
| LOC388206 | 0 | inactive |
| SDR42E1 | 0 | inactive |
| FGD6 | 0 | inactive |
| FCGBP | 2 | active |
| LINC00336 | 2 | active |
| LOC400949 | 0 | inactive |
| LINC03122 | 0 | inactive |
| LYAR | -1 | inactive |
| MKKS | 0 | inactive |
| SLC25A40 | 1 | inactive |
| BORCS8-MEF2B | -1 | inactive |
| LINC01342 | 0 | inactive |
| UBQLN2 | 0 | inactive |

Ordered by “two-siRNA summed score (-2 to +2)” (ascending): some entries from above
| gene | two-siRNA summed score (-2 to +2) | call |
| --- | --- | --- |
| LOC339693 | 0 | inactive |
| RNF112 | 0 | inactive |
| LOC401544 | 0 | inactive |
| ELOVL7 | 0 | inactive |
| KMT2D | 0 | inactive |
| LINC01060 | 0 | inactive |
| AKAP17A | 0 | inactive |
| FLJ13305 | 0 | inactive |
| FSCB | 1 | inactive |
| SYT4 | 1 | inactive |
| GJC2 | 1 | inactive |
